Values quoted from earlier work in US10501454B2, “Monocyclic β-lactam-siderophore conjugate, and preparation method and use thereof” (Shanghai Institute of Materia Medica, Chinese Academy of …, priority 2016, dated 2019).
Where a name gives a salt, the structure may show the parent alone. Some of these results come from one statement about several compounds together. At least one structure is not confirmed: it was looked up by name or label, or the drawing left a doubt.

Test system: Acinetobacter baumannii
Conditions: background, reported by Pfizer 2012 to 2013; cited from earlier work

In the case of `CCC(O/N=C(\C(=O)N[C@@H]1C(=O)N(OS(=O)(=O)O)C1(C)C)c1csc(N)n1)c1cc(=O)c(O)cn1O` (stereo partly drawn) [Compound 4, (3S)-3-((Z)-2-(2-aminothiazol-4-yl)-2-((1-(1,5-dihydroxy-4-oxo-1,4-dihydropyridin-2-yl)propoxy)imine)acetamido)-2,2-dimethyl-4-oxoazetidine-1-hydrogen sulfate], the “MIC90 against Acinetobacter baumannii” value is listed as “greater than 64 μg/mL”.
In the case of `C=CC(O/N=C(\C(=O)N[C@@H]1C(=O)N(OS(=O)(=O)O)C1(C)C)c1csc(N)n1)c1cc(=O)c(O)cn1O` (stereo partly drawn) [Compound 5, (3S)-3-((Z)-2-(2-aminothiazol-4-yl)-2-(((1-(1,5-dihydroxy-4-oxo-1,4-dihydropyridin-2-yl)allyl)oxy)imine)acetamido)-2,2-dimethyl-4-oxoazetidine-1-hydrogen sulfate], the “MIC90 against Acinetobacter baumannii” value is listed as “greater than 64 μg/mL”.
